Experimental data taken from PMC5794190.
These are yes or no findings as the source states them, for the method shown. In cells and extracts the contact can be indirect. A result given as binding can be weak or reduced; the word gives no strength. For some of these results: Where a sequence is shown, tags or fusion partners need not be part of it.

T1: 3xFLAG-HCMV-UL48 (amino acid residues 1-263), N-terminal catalytic domain (HCMV (human cytomegalovirus)) (UniProt P16785)
T1 sequence: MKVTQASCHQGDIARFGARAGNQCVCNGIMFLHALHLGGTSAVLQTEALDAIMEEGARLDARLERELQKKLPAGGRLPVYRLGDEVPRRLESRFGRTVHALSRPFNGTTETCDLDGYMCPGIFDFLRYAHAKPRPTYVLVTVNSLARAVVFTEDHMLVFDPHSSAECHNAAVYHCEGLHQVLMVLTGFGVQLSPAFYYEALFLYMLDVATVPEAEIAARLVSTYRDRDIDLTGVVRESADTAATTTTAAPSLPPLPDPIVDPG

T2: 3xFLAG-KSHV-ORF64 (amino acid residues 1-205), N-terminal catalytic domain (KSHV) (UniProt Q2HR64)
T2 sequence: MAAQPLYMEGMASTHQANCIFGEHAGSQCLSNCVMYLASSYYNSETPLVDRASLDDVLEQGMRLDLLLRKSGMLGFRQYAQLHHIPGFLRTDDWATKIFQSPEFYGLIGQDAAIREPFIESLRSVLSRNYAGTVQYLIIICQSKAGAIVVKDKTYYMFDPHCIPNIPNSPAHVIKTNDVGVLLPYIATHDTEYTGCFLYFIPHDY

B1: 14-3-3γ (protein, UniProt P61981 1-247)
chain: MVDREQLVQKARLAEQAERYDDMAAAMKNVTELNEPLSNEERNLLSVAYKNVVGARRSSWRVISSIEQKTSADGNEKKIEMVRAYREKIEKELEAVCQDVLSLLDNYLIKNCSETQYESKVFYLKMKGDYYRYLAEVATGEKRATVVESSEKAYSEAHEISKEHMQPTHPIRLGLALNYSVFYYEIQNAPEQACHLAKTAFDDAIAELDTLNEDSYKDSTLIMQLLRDNLTLWTSDQQDDDGGEGNN
B2: 14-3-3η (protein, UniProt Q04917 1-246)
chain: MGDREQLLQRARLAEQAERYDDMASAMKAVTELNEPLSNEDRNLLSVAYKNVVGARRSSWRVISSIEQKTMADGNEKKLEKVKAYREKIEKELETVCNDVLSLLDKFLIKNCNDFQYESKVFYLKMKGDYYRYLAEVASGEKKNSVVEASEAAYKEAFEISKEQMQPTHPIRLGLALNFSVFYYEIQNAPEQACLLAKQAFDDAIAELDTLNEDSYKDSTLIMQLLRDNLTLWTSDQQDEEAGEGN

Assays:
Assay in all cases: co-IP; anti-FLAG agarose on lysates of transfected HeLa, U2OS or HEK293T cells (NP-40 lysis buffer), elution with 3xFLAG peptide, western blot; in Fig 7A with co-transfected HA-TRIM25, in Fig 5C with co-transfected HA- and FLAG-TRIM25
[1] = target: T1, 3xFLAG-HCMV-UL48 (amino acid residues 1-263), N-terminal catalytic domain (HCMV (human cytomegalovirus))
[2] = target: T2, 3xFLAG-KSHV-ORF64 (amino acid residues 1-205), N-terminal catalytic domain (KSHV)
[3] = target: FLAG-BPLF1C61A, catalytic mutant of the BPLF1 N-terminal domain (Epstein-Barr virus)

Row | Molecule | binding [1] | binding [2] | binding [3]
1 | 14-3-3 (endogenous, detected with a pan-14-3-3 antibody) | binds | binds | –
2 | B1 | – | – | binds
3 | B2 | – | – | binds
